The results in this text go back to US20050065326A1.

The chains behind the UniProt entries cited, without tags or fusion partners. Where a name states a change or a piece, a line headed by the entry shows the natural chain unless it says otherwise.
UniProt Q92956: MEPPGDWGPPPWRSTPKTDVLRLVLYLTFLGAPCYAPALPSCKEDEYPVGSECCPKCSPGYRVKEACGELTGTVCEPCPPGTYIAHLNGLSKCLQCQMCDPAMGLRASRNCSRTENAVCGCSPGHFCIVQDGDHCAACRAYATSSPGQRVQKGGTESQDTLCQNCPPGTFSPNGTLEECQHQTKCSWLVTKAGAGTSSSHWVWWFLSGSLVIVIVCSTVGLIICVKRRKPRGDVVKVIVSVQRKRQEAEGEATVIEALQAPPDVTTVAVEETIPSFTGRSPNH

Assay [1] deals with TR2 polypeptide (human) (UniProt Q92956). The assay is described as follows: phage display selection; no details given.
Assay [2] has the same target. The assay can be described thus: phage display selection of an scFv library on TR2 polypeptide.

These are yes or no findings as the source states them, for the method shown. Some entries that bind do so weakly or less than the wild type.

B1: TR01G03 (scFv)
scFv: QVQLVQSGAEVKKPGSSVKVSCKTSGGTFGNYAINWVRQAPGQGLEWLGGIIPIYGTANYGEKFHGRLTLTADKSTSTAYMELRSLRSEDTAVYYCATHTGGYNYWSFDLWGQGTLVTVSSGGGGSGGGGSGGGGSALETTLTQSPGTLSLSPGDRATLSCWASQSVGSYLAWYQQKPGQAPRLLISGASRRATGIPDRFSGSGSGTDFTLTISRLEPEDFAVYYCQQYGTSVLTFGGGTRLEIKR
As for B1, the binding entry with TR2 polypeptide (human) [1] and with TR2 polypeptide (human) [2] was “binds” throughout.
